This is an account of results in the supplement of paper PMC12067093, “Discovery and optimisation of a covalent ligand for TRIM25 and its application to targeted protein ubiquitination” (Chemical Science, 2025).

The chains behind the UniProt entries cited, without tags or fusion partners. Where a name states a change or a piece, a line headed by the entry shows the natural chain unless it says otherwise.
UniProt P53675: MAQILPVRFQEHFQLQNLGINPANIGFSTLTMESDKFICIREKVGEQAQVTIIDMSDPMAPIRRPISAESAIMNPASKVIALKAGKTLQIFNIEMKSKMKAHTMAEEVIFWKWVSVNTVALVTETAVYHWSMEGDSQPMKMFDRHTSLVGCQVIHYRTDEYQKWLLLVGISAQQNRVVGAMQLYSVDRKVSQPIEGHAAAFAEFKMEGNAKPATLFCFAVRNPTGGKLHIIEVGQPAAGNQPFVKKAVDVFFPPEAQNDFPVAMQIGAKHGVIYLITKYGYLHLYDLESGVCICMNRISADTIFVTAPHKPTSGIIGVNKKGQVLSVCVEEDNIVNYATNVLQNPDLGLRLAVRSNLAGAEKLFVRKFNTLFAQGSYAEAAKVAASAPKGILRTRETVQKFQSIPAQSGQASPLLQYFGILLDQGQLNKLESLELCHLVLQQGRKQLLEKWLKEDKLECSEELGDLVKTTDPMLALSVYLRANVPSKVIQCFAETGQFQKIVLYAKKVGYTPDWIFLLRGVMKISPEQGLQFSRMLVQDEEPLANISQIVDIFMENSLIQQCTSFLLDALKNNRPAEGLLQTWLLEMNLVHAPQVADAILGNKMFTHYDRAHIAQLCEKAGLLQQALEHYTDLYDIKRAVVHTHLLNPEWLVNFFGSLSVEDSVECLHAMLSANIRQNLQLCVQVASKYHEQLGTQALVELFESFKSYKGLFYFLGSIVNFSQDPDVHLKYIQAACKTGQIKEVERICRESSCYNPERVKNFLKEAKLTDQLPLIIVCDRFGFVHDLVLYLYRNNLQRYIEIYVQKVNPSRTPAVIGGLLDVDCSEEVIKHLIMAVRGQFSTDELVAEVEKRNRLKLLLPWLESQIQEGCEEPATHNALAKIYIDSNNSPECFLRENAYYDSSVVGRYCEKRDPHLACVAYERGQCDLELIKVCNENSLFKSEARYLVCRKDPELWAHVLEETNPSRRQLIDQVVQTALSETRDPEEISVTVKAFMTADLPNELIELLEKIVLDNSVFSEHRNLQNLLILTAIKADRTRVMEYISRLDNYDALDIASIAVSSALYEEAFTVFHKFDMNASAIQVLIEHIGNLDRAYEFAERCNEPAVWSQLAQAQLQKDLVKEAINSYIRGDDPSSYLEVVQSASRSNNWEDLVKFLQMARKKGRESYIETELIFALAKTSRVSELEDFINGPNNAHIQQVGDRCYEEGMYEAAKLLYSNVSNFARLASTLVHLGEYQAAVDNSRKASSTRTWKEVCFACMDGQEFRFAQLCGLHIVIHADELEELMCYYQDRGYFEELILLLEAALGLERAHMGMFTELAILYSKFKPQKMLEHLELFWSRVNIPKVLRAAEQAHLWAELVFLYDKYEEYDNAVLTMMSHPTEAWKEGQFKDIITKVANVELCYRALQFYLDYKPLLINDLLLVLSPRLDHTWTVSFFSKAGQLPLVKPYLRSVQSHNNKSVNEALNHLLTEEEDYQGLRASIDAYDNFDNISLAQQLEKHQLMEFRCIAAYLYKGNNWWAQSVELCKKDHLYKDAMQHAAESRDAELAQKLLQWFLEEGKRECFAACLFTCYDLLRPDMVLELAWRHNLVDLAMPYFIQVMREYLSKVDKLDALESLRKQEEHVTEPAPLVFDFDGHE
UniProt Q9Y259: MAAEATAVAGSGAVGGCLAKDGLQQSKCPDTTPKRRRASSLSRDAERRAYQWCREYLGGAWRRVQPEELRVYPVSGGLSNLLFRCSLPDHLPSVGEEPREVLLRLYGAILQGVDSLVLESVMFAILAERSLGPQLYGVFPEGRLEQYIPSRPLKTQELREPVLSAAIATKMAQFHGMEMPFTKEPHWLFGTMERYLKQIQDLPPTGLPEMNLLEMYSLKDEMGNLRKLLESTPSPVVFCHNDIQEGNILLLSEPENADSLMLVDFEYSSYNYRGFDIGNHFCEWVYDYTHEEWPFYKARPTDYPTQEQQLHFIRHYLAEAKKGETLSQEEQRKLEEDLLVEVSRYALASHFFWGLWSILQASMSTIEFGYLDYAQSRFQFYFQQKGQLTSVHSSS
UniProt O76071: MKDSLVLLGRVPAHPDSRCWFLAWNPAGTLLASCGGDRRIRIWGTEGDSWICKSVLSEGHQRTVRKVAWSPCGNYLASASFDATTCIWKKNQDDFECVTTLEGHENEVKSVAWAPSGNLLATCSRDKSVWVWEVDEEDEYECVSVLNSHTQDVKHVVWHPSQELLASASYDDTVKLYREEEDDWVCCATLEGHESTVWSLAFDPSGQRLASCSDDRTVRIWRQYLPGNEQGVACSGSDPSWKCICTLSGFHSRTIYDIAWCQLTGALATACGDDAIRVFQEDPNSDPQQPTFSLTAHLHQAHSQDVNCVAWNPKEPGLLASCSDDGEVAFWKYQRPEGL
UniProt Q3L8U1: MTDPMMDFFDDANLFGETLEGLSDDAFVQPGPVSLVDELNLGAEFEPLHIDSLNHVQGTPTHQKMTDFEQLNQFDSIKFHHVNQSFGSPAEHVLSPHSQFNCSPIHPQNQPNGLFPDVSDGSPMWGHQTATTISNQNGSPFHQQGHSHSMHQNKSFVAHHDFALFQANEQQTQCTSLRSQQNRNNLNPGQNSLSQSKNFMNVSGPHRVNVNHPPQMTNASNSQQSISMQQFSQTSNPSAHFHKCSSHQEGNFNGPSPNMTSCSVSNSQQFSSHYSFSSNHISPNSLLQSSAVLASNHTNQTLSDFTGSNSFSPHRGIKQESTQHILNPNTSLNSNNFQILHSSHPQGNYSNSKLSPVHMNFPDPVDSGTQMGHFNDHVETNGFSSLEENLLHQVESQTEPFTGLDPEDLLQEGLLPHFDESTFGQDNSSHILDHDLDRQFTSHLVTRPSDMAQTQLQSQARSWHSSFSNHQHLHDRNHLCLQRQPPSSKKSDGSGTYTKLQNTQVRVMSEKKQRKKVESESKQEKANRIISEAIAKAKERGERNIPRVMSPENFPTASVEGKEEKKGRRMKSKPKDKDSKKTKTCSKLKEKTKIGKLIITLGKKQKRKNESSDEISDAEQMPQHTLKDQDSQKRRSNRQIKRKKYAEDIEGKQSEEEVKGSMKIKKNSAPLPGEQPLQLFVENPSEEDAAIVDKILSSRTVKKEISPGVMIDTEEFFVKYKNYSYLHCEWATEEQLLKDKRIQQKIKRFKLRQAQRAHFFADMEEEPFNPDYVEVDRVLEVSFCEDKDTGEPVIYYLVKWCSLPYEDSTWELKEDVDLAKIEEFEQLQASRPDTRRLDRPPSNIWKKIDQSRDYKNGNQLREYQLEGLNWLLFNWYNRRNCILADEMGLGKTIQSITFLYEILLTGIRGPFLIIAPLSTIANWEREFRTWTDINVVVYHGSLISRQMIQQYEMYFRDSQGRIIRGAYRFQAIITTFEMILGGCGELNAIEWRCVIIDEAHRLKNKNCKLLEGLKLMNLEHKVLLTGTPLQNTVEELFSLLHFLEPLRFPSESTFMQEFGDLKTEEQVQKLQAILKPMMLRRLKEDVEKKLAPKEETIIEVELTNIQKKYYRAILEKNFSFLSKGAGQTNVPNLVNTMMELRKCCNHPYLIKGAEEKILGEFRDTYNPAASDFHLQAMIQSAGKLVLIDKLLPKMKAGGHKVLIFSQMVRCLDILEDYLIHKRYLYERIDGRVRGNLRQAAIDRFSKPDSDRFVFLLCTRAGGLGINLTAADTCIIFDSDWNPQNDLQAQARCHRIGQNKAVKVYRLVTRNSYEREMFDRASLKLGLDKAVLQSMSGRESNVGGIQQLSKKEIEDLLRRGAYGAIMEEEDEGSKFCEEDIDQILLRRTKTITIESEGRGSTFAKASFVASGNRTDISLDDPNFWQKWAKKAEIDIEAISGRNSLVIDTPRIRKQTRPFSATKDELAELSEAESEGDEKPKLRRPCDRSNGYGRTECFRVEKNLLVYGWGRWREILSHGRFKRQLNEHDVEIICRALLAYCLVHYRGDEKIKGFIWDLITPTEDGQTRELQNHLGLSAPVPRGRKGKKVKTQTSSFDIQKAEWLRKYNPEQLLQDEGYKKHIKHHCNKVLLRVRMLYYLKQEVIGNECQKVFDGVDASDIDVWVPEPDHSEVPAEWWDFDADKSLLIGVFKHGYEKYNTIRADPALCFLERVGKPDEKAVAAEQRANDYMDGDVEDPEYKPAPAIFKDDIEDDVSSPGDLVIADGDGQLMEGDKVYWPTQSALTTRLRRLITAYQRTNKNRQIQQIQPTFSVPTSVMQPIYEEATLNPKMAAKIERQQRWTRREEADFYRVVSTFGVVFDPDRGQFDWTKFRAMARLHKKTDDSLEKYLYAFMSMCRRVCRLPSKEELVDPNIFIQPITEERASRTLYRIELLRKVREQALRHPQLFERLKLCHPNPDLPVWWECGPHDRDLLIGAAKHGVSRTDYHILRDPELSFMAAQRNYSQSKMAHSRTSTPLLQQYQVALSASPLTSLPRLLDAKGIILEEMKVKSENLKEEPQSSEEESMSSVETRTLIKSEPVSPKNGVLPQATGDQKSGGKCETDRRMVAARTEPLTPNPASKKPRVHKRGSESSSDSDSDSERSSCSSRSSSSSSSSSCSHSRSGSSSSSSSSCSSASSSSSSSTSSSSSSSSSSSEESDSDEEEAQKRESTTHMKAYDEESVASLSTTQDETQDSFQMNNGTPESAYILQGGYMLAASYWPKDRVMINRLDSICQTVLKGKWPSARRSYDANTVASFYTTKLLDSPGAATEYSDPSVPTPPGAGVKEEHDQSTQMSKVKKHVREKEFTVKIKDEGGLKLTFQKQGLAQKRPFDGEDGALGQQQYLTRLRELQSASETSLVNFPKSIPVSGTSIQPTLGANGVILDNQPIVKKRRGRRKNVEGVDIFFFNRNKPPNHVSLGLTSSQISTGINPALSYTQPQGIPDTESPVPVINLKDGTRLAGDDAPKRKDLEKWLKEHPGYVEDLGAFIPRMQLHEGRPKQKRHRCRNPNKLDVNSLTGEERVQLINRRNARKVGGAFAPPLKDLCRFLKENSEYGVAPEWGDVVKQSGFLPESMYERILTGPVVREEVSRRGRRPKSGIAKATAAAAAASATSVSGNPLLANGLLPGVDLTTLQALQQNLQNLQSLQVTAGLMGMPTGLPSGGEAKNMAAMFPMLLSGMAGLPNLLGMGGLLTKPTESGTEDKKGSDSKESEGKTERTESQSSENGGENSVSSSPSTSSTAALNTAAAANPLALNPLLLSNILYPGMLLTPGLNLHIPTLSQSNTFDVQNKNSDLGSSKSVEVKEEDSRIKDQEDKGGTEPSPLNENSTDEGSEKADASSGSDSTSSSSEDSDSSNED
UniProt Q9BUK0: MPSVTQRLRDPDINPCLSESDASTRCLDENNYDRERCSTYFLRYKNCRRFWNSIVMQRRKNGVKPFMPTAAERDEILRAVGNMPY
UniProt P09496: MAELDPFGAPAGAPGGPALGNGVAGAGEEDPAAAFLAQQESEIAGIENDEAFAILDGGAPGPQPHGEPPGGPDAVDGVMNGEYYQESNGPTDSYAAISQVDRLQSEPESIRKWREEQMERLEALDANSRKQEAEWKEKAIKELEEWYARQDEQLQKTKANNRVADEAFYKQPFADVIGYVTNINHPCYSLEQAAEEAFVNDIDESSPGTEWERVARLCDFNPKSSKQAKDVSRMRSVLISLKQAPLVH
UniProt Q8WUH1: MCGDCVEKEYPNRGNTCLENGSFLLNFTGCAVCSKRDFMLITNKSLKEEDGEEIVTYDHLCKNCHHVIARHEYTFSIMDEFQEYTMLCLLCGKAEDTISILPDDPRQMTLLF
UniProt Q86X52: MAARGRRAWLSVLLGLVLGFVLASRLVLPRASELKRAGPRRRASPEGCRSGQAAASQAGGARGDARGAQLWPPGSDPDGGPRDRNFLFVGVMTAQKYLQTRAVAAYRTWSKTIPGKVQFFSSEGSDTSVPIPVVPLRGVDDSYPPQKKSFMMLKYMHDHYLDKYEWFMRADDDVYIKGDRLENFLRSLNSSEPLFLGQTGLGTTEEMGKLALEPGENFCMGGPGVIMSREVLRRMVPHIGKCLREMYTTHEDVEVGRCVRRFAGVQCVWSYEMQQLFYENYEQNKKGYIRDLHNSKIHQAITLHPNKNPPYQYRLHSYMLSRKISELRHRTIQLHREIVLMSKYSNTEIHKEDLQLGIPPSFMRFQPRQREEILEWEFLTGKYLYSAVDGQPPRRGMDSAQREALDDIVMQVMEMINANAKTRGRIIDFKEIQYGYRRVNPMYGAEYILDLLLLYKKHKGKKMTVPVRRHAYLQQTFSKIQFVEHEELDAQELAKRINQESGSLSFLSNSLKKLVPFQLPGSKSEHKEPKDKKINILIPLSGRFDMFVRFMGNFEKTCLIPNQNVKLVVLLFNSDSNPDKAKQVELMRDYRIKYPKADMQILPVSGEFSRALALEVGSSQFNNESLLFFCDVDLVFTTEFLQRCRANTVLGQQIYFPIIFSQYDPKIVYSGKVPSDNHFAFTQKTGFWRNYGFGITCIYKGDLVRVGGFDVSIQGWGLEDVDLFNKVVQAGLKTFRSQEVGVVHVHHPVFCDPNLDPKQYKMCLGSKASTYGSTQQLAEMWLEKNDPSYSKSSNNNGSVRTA

The list shows a part of the results.
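Also: competitive chemoproteomic profiling in live THP-1 cells with an iodoacetamide desthiobiotin (IA-DTB) probe, comparing probe-labelled peptide intensities in compound-treated cells against DMSO-treated controls.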

Compound in the test: CC1Cc2ccccc2N1C(=O)C1CCCN(C1)C(=O)CCl (mixture of isomers) [TRIM25 ligand 11 (diastereomer mixture)]
As to the kind of experiment: probe-labelled cysteine peptide fold change vs DMSO (competition) (log2 fold change); higher = less target engagement (more negative = stronger competition). Particulars: 50 µM; THP-1; incubation time: 4 h.
Regarding CGAS_Q8N884_199_CDSAFR (UniProt Q8N884), the “probe-labelled cysteine peptide fold change” value was determined as 0.067.

Regarding “CLTCL1_P53675_459_LECSEELGDLVK (UniProt P53675)”, the “probe-labelled cysteine peptide fold change” value is 0.12.

Turning to “CLTCL1_P53675_617_AHIAQLCEK (UniProt P53675)”, the “probe-labelled cysteine peptide fold change” value was 0.0448.

With “CLTC_Q00610_934_GQCDLELINVCNENSLFK (UniProt Q00610)”, the “probe-labelled cysteine peptide fold change” value is -0.109.

“CLIP2_Q9UDT6_525_RGEIEELQQCLLHSGPPPPDHPDAAEILR (UniProt Q9UDT6)”: the “probe-labelled cysteine peptide fold change” value was 0.285.

In the case of “CLPB_Q9H078_572_INEIVYFLPFCHSELIQLVNK (UniProt Q9H078)”, the “probe-labelled cysteine peptide fold change” value is 0.06.

Take “CHKB_Q9Y259_85_CSLPDHLPSVGEEPR (UniProt Q9Y259)”: the “probe-labelled cysteine peptide fold change” value was determined as 0.244.

On to “CIAO1_O76071_245_CICTLSGFHSR (UniProt O76071)”, for which the “probe-labelled cysteine peptide fold change” value is -0.0452.

With “CIT_O14578_1655_ALCLVDVK (UniProt O14578)”, the “probe-labelled cysteine peptide fold change” value worked out at 0.38.

As to “CLP1_Q92989_71_VAVFTWHGCSVQLSGR (UniProt Q92989)”, the “probe-labelled cysteine peptide fold change” value worked out at 0.296.

On to “CLASP1_Q7Z460_1423_AAEEAASTLASSIHPEQCIK (UniProt Q7Z460)”, for which the “probe-labelled cysteine peptide fold change” value is -0.00926.

Consider “CHKB_Q9Y259_282_GFDIGNHFCEWVYDYTHEEWPFYK (UniProt Q9Y259)”, for which the “probe-labelled cysteine peptide fold change” value amounted to 0.0979.

Take “CHM_P24386_364_NFLHCLGR (UniProt P24386)”: the “probe-labelled cysteine peptide fold change” value amounted to 0.291.

Regarding “CLTC_Q00610_666_RAVVHTHLLNPEWLVNYFGSLSVEDSLECLR (UniProt Q00610)”, the “probe-labelled cysteine peptide fold change” value amounted to 0.251.

For the target “CHD9_Q3L8U1_1257_FSKPDSDRFVFLLCTR (UniProt Q3L8U1)”, the “probe-labelled cysteine peptide fold change” value was -0.0129.

Consider “CLIC1_O00299_89_IEEFLEAVLCPPRYPK (UniProt O00299)”, for which the “probe-labelled cysteine peptide fold change” value amounted to 0.0584.

As to “CIAO1_O76071_34_CWFLAWNPAGTLLASCGGDRR (UniProt O76071)”, the “probe-labelled cysteine peptide fold change” value is -0.171.

Take “CKAP5_Q14008_1500_CEMPELVQHK (UniProt Q14008)”: the “probe-labelled cysteine peptide fold change” value was -0.166.

As to “CFD_P00746_148_VDRDVAPGTLCDVAGWGIVNHAGR (UniProt P00746)”, the “probe-labelled cysteine peptide fold change” value was -0.395.

“CHD1_O14646_502_GNSCILADEMGLGK (UniProt O14646)”: the “probe-labelled cysteine peptide fold change” value worked out at 0.0867.

Regarding “CHCHD7_Q9BUK0_16_LRDPDINPCLSESDASTR (UniProt Q9BUK0)”, the “probe-labelled cysteine peptide fold change” value is -0.133.

As for “CHST14_Q8NCH0_117_AVCGQPGMPR (UniProt Q8NCH0)”, the “probe-labelled cysteine peptide fold change” value was found to be 0.162.

Regarding “CIP2A_Q8TCG1_6_MDSTACLK (UniProt Q8TCG1)”, the “probe-labelled cysteine peptide fold change” value is -0.151.

As for “CLTA_P09496_218_LCDFNPK (UniProt P09496)”, the “probe-labelled cysteine peptide fold change” value is -0.275.

With “CHAF1A_Q13111_761_EFQEHCR (UniProt Q13111)”, the “probe-labelled cysteine peptide fold change” value came out at 0.106.

Take “CHAMP1_Q96JM3_592_CDILVQEELLASPK (UniProt Q96JM3)”: the “probe-labelled cysteine peptide fold change” value was -0.102.

Regarding “CHURC1_Q8WUH1_88_EEDGEEIVTYDHLCK (UniProt Q8WUH1)”, the “probe-labelled cysteine peptide fold change” value is 0.249.

As to “CIZ1_Q9ULV3_631_LGEIQHMSQACLLSLLPVPR (UniProt Q9ULV3)”, the “probe-labelled cysteine peptide fold change” value is -0.097.

For “CHUK_O15111_30_LGTGGFGNVCLYQHR (UniProt O15111)”, the “probe-labelled cysteine peptide fold change” value turned out to be 0.0455.

In the case of “CLTC_Q00610_217_MEGNAEESTLFCFAVR (UniProt Q00610)”, the “probe-labelled cysteine peptide fold change” value turned out to be 0.0801.

In the case of “CHSY1_Q86X52_48_ASPEGCR (UniProt Q86X52)”, the “probe-labelled cysteine peptide fold change” value worked out at 0.088.

Consider “CKAP2_Q8WWK9_674_ETDAFVCRPNAALCR (UniProt Q8WWK9)”, for which the “probe-labelled cysteine peptide fold change” value is -0.0785.

As to “CFAP20_Q9Y6A4_61_ITDNDIQSLVLEIEGTNVSTTYITCPADPKK (UniProt Q9Y6A4)”, the “probe-labelled cysteine peptide fold change” value is -0.0256.

For “CLTCL1_P53675_918_RDPHLACVAYER (UniProt P53675)”, the “probe-labelled cysteine peptide fold change” value was determined as 0.0856.

For “CLASP2_O75122_157_EACITVAHLSTVLGNK (UniProt O75122)”, the “probe-labelled cysteine peptide fold change” value turned out to be 0.0759.

With “CLTC_Q00610_491_VIQCFAETGQVQK (UniProt Q00610)”, the “probe-labelled cysteine peptide fold change” value came to 0.0523.

As for “CHD4_Q14839_396_AYHMVCLDPDMEK (UniProt Q14839)”, the “probe-labelled cysteine peptide fold change” value was found to be 0.152.

“CLTC_Q00610_666_AVVHTHLLNPEWLVNYFGSLSVEDSLECLR (UniProt Q00610)”: the “probe-labelled cysteine peptide fold change” value amounted to 0.283.
